Measured values as given in the supplement of paper PMC5949888.
Most values lie at the floor of the assay. Slopes are relative: functional sequences can read slightly below zero.

Each substance was assayed on Saccharomyces cerevisiae PS128 hsf1 delta, HSF1(1-493) fusion (assay: growth estimate (transactivation domain function in HSF1 fusion, heat-shock survival) (a.u. (slope of normalised read count over time)); higher = stronger growth at 37°C, i.e. more transactivation activity). Conditions: library: random library.

SGLSGGATGQPCKHFVPGGV was tested. Which growth estimate did it give?
The growth estimate was less than -0.25.

SGLSPVWRSIAKHFLESGKV was tested. Which growth estimate did it give?
Its growth estimate is less than -0.25.

Which growth estimate does the source give for SGLTVIPTGMVARAGSFWVG here?
Its growth estimate is less than -0.25.

How did the growth estimate turn out when SGMIWFLCIKVPGMPNVGVS was run?
Its growth estimate is less than -0.25.

With SGNCLLERSRVRRGSMIQIV as the substance, how does the growth estimate read?
The growth estimate was less than -0.25.

Which growth estimate does the source give for SGNGVGGYTT here?
The growth estimate was less than -0.25.

Which growth estimate does the source give for SGNPSKQRRRCTPN here?
The growth estimate was less than -0.25.

SGPLRDSSLPRRVRNNRQGR was tested. Which growth estimate did it give?
Its growth estimate is less than -0.25.

Which growth estimate does the source give for SGPRSLPTGVCVV here?
Its growth estimate is less than -0.25.

Which growth estimate does the source give for SGQLGRDWYSGLIDS here?
Its growth estimate is less than -0.25.

With SGRCNMWDRGTDSPRGVVVI as the substance, how does the growth estimate read?
The growth estimate was less than -0.25.

For SGRGLCDVWLT, which growth estimate is on record?
The growth estimate was less than -0.25.

With SGRLCSLGRVGGAISFSPNV as the substance, how does the growth estimate read?
Its growth estimate is less than -0.25.

Which growth estimate does the source give for SGRQ here?
The growth estimate was less than -0.25.

How did the growth estimate turn out when SGRQTFLVKRDSNQDSA was run?
The growth estimate was less than -0.253.

How did the growth estimate turn out when SGRSSLQTRGPRV was run?
Its growth estimate is less than -0.25.

Which growth estimate does the source give for SGRTDFAELHVLPIKAPRKL here?
Its growth estimate is less than -0.25.

How did the growth estimate turn out when SGRYDLPATPWR was run?
The growth estimate was less than -0.253.

How did the growth estimate turn out when SGS was run?
Its growth estimate is less than -0.25.

For SGSARARAYVLNRAHRLPWA, which growth estimate is on record?
The growth estimate was 0.112.

Which growth estimate does the source give for SGSCPLERGRSYDLRDDSDG here?
Its growth estimate is less than -0.25.

SGSDVYVEVSRGTRRALLTH was tested. Which growth estimate did it give?
The growth estimate was less than -0.25.

With SGSEDFVG as the substance, how does the growth estimate read?
The growth estimate was less than -0.25.

For SGSGFRRRAGNQGRVHFPSV, which growth estimate is on record?
Its growth estimate is less than -0.25.

Which growth estimate does the source give for SGSHGP here?
The growth estimate was less than -0.25.

SGSQRDRSSI was tested. Which growth estimate did it give?
Its growth estimate is less than -0.25.

Which growth estimate does the source give for SGSRERSR here?
Its growth estimate is less than -0.25.

With SGSRLT as the substance, how does the growth estimate read?
Its growth estimate is less than -0.25.

How did the growth estimate turn out when SGSSCDRWR was run?
Its growth estimate is less than -0.25.

SGSSRLRSATRGESTR was tested. Which growth estimate did it give?
Its growth estimate is less than -0.25.

SGSSRNTSL was tested. Which growth estimate did it give?
The growth estimate was less than -0.25.

With SGST as the substance, how does the growth estimate read?
Its growth estimate is less than -0.25.

Which growth estimate does the source give for SGSVSNHGYRENY here?
The growth estimate was less than -0.25.

SGTAIRKPAR was tested. Which growth estimate did it give?
The growth estimate was less than -0.25.

SGTGIRFASRVWSPYGSVVN was tested. Which growth estimate did it give?
Its growth estimate is less than -0.25.

Which growth estimate does the source give for SGTRGEHLR here?
Its growth estimate is less than -0.25.

For SGTTSSFSSLRSQGNGGHSW, which growth estimate is on record?
Its growth estimate is less than -0.25.

Which growth estimate does the source give for SGTVHASVMNVTAGRVGHFI here?
Its growth estimate is less than -0.25.

How did the growth estimate turn out when SGV was run?
The growth estimate was less than -0.25.

With SGVIVALRVVSTHGRRMRLK as the substance, how does the growth estimate read?
Its growth estimate is less than -0.25.

For SGVLCVVSHFTRFGSQT, which growth estimate is on record?
Its growth estimate is less than -0.25.

Which growth estimate does the source give for SGVLMIVFVYTRVAVGRGCP here?
Its growth estimate is less than -0.25.

Which growth estimate does the source give for SGVRAMRRPRVMGGENNGGY here?
Its growth estimate is less than -0.25.

For SGVRVSPGGT, which growth estimate is on record?
Its growth estimate is less than -0.25.

With SGVVLVCGGRDYIIMIWE as the substance, how does the growth estimate read?
Its growth estimate is less than -0.25.

SGWRQLGTKNQVLQGRARAK was tested. Which growth estimate did it give?
The growth estimate was less than -0.25.

For SGYC, which growth estimate is on record?
The growth estimate was less than -0.25.

For SGYCFCEVKNFDLGQNCKMG, which growth estimate is on record?
Its growth estimate is less than -0.25.

Which growth estimate does the source give for SGYWRGVRWLPITGELRVNR here?
The growth estimate was less than -0.25.

For SHA, which growth estimate is on record?
Its growth estimate is less than -0.25.

SHATVARMVSVRRLLESYFP was tested. Which growth estimate did it give?
Its growth estimate is less than -0.25.

With SHEGWGYP as the substance, how does the growth estimate read?
Its growth estimate is less than -0.25.

How did the growth estimate turn out when SHGAIQY was run?
The growth estimate was less than -0.25.

SHGGFRKETE was tested. Which growth estimate did it give?
The growth estimate was less than -0.25.

SHGKPWTTFVNCHVLHPTSA was tested. Which growth estimate did it give?
Its growth estimate is less than -0.25.

For SHGVSESVGLVTIKKGPCAS, which growth estimate is on record?
Its growth estimate is less than -0.25.

How did the growth estimate turn out when SHHRG was run?
The growth estimate was less than -0.25.

How did the growth estimate turn out when SHHRIRNEAFGNAIWVLSCA was run?
Its growth estimate is less than -0.25.

Which growth estimate does the source give for SHICLTCRGPIQLL here?
The growth estimate was -0.246.

SHISSKTRRASWADET was tested. Which growth estimate did it give?
Its growth estimate is less than -0.25.

For SHKRHLGLSQVVVQQNDARS, which growth estimate is on record?
The growth estimate was less than -0.25.

With SHMHRSKPLRCCFYCNPEPR as the substance, how does the growth estimate read?
The growth estimate was less than -0.25.

For SHMIRGAYAIHPNNQLALPC, which growth estimate is on record?
Its growth estimate is less than -0.25.

How did the growth estimate turn out when SHP was run?
The growth estimate was less than -0.25.

SHRLFYL was tested. Which growth estimate did it give?
Its growth estimate is less than -0.25.

For SHRPNPVWYDTCAQLLRHFV, which growth estimate is on record?
Its growth estimate is less than -0.25.

With SHSAHAEMYLIQLLTK as the substance, how does the growth estimate read?
Its growth estimate is less than -0.25.

Which growth estimate does the source give for SHSPVSLLCRRRPK here?
The growth estimate was less than -0.25.

SHSSIVFITGYPGAAPDDRG was tested. Which growth estimate did it give?
The growth estimate was less than -0.25.

With SHT as the substance, how does the growth estimate read?
The growth estimate was less than -0.25.

For SHTEGTGSGNQAGGSGLYMQ, which growth estimate is on record?
Its growth estimate is less than -0.25.

With SHTTHA as the substance, how does the growth estimate read?
Its growth estimate is less than -0.25.

For SHVHLRQGLAEIVAAFVTAF, which growth estimate is on record?
The growth estimate was less than -0.25.

SHWFHISAN was tested. Which growth estimate did it give?
Its growth estimate is less than -0.25.

For SIAGGQGIAVVPPFMRETLL, which growth estimate is on record?
The growth estimate was less than -0.25.

How did the growth estimate turn out when SIATQDYYWVPQTASI was run?
Its growth estimate is less than -0.25.

How did the growth estimate turn out when SIAVARMVCNFVADRSPPHN was run?
Its growth estimate is less than -0.25.

With SICGVTSVSGPGRSRRWPHL as the substance, how does the growth estimate read?
Its growth estimate is less than -0.25.

Which growth estimate does the source give for SIDI here?
The growth estimate was less than -0.25.

Which growth estimate does the source give for SIEKTSRIPDVAKQSLSFLD here?
The growth estimate was less than -0.25.

Which growth estimate does the source give for SIGRKCNPMLL here?
Its growth estimate is less than -0.25.

How did the growth estimate turn out when SIKGLPANILWLLGWKTLGV was run?
Its growth estimate is less than -0.25.

With SIKLPSRPL as the substance, how does the growth estimate read?
Its growth estimate is less than -0.25.

SIKRSAVVLVTAPVYSRTAP was tested. Which growth estimate did it give?
The growth estimate was less than -0.25.

How did the growth estimate turn out when SILGPRVMTFRMGLRHIGVL was run?
Its growth estimate is less than -0.25.

SILPTSTA was tested. Which growth estimate did it give?
Its growth estimate is less than -0.25.

SILRASRTGTAGGLRSDAMR was tested. Which growth estimate did it give?
Its growth estimate is less than -0.25.

For SILRGTVPALVH, which growth estimate is on record?
The growth estimate was less than -0.25.

How did the growth estimate turn out when SILTGCPRKGTPWIKLILTH was run?
The growth estimate was -0.245.

Which growth estimate does the source give for SILVAIC here?
Its growth estimate is less than -0.25.

SIMLN was tested. Which growth estimate did it give?
Its growth estimate is less than -0.25.

With SIPMMERTNKNTTFGNS as the substance, how does the growth estimate read?
The growth estimate was less than -0.25.

For SIQDWVSTTAL, which growth estimate is on record?
Its growth estimate is less than -0.25.

Which growth estimate does the source give for SIQSGGGGGIGRNSTSGSGT here?
Its growth estimate is less than -0.25.

Which growth estimate does the source give for SIRPYRLLDFGGRTSQPLSE here?
Its growth estimate is less than -0.25.

How did the growth estimate turn out when SISISHAVAVGLQ was run?
The growth estimate was less than -0.25.

How did the growth estimate turn out when SISKLCSDRT was run?
The growth estimate was less than -0.25.

Which growth estimate does the source give for SISLPRVPVNPDDNALLKLG here?
Its growth estimate is less than -0.25.

For SIVFTDF, which growth estimate is on record?
The growth estimate was less than -0.25.
